# According to patent publication US9670126B2, “Methods of making 15-hydroxy fatty acid derivatives” (Dignity Sciences Limited, priority 2013, dated 2017):
# For at least one compound, name, drawing or mass did not settle the structure.
# Experiments:
# [1] = Heat stability trial of HETrE under solvent removal conditions (reflux in 40% MtBE:cyclohexane), UPLC; assay type: physicochemical
# Description: Previously, neat HETrE heated at 50° C.
# A heat stability trial was conducted where a solution of HETrE (˜9.1 g) in 500 mL 40% MtBE: cyclohexane was heated at 75° C. (external oil bath temperature) at 400 mbar vacuum (condenser coolant temperature −0° C.). This established a gentle reflux. The solution was protected from light. Samples were withdrawn at various time points, under a nitrogen atmosphere, and analysed by UPLC (252 nm) (FIG. 15).
# The conditions were designed to mimic the likely conditions encountered on a plant scale solvent removal from pooled column fractions. […] The reflux was extended over a further 112 hours.
# [2] = DSC of neat HETrE; assay type: physicochemical; conditions: heat rates 2, 5, 10 and 20° C./min, 20 to 300° C.
smiles,measurement,setting,value
"CCCCC[C@H](O)/C=C/C=C\C/C=C\CCCCCCC(=O)O [15(S)-HETrE, 15-(S)-hydroxyeicosatrienoic acid]","dimer impurity at RT 12.2 mins, after extended reflux","[1]; 40% MtBE:cyclohexane, 75° C. external, after 6 + 112 hours",0.64%
same,"dimer impurity at RT 12.2 mins, before reflux","[1]; 40% MtBE:cyclohexane, 75° C. external, start value",0.44%
same,purity by UPLC (252 nm),"[1]; HETrE in 40% MtBE:cyclohexane, 75° C. external, 400 mbar, gentle reflux, protected from light, after 6 hours",no significant decrease in purity
same,purity by UPLC (252 nm),"[1]; same conditions, reflux extended over a further 112 hours",No significant decrease in purity
same,exotherms by DSC,[2],No significant exotherms
